Reference: publication PMC3652857

Chains of the proteins cited; added tags and fusions are not shown. A line that says so, or that is headed by a name, gives the form on record, which may keep a tag or linker.
UniProt P39748, whole entry: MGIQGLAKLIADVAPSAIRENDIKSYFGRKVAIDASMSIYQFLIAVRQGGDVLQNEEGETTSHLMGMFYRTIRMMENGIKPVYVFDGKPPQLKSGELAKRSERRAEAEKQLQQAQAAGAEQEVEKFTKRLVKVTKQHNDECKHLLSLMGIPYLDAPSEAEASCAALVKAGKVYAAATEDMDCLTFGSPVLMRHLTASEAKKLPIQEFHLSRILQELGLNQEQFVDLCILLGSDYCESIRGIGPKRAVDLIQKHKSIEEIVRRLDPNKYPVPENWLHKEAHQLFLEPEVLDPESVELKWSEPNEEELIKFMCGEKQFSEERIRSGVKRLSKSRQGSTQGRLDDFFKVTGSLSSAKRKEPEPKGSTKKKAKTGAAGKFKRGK
UniProt P39748, whole entry D181A: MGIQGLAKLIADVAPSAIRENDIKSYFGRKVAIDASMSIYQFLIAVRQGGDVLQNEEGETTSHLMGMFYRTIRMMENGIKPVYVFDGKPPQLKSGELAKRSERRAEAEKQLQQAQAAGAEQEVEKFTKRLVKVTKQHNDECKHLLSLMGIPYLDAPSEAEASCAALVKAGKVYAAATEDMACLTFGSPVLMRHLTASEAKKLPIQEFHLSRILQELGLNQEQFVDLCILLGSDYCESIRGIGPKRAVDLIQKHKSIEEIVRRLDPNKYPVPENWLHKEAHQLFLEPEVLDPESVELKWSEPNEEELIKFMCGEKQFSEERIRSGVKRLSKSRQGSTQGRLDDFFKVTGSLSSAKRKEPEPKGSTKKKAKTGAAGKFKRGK
FENMIT (human), one chain, as listed by the source: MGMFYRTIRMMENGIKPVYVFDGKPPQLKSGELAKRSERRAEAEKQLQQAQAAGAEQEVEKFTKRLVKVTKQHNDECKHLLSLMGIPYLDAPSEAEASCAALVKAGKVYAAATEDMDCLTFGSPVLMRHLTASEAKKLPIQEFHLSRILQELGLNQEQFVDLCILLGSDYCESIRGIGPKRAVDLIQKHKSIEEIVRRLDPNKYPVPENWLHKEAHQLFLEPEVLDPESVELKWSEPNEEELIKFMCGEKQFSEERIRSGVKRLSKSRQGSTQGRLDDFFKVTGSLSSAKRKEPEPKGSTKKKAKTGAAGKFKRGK

What was measured:
[1] = system: FENMIT (human); assay: EMSA; conditions: 25 mM Tris pH 8.0, 1 mM DTT, 0.1 mg/ml BSA, 6% glycerol; 0.2 nM 32P substrate; 1 h on ice; 10% native PAGE in tris-borate; recombinant protein; residues 1-316; protein details: His; label: 5'-32P on RNA44
[2] = biological target: FEN1 (FEN1-1.His) (human) (UniProt P39748); assay: EMSA; conditions: 1 and 5 nM protein; 25 mM Tris pH 8.0, 1 mM DTT, 0.1 mg/ml BSA, 6% glycerol; 0.2 nM 32P substrate; 1 h on ice; 10% native PAGE in tris-borate; recombinant protein; residues 1-380; protein details: His; label: 5'-32P on RNA44
[3] = biological target: FEN1 D181A (human) (UniProt P39748); assay: EMSA; conditions: 1 and 5 nM protein; 25 mM Tris pH 8.0, 1 mM DTT, 0.1 mg/ml BSA, 6% glycerol; 0.2 nM 32P substrate; 1 h on ice; 10% native PAGE in tris-borate; recombinant protein; residues 1-380; protein details: His; label: 5'-32P on RNA44
[4] = system: FENMIT (human); assay: competition with a labelled probe; conditions: 25 nM FENMIT, cold RNA44 0-5 nM; 25 mM Tris pH 8.0, 1 mM DTT, 0.1 mg/ml BSA, 6% glycerol; 0.2 nM 32P substrate; 1 h on ice; 10% native PAGE in tris-borate; recombinant protein; residues 1-316; protein details: His; label: 5'-32P on RNA44; scale: fold more cold RNA44 for half competition than labeled ssRNA needs

## AGCCTGCCATTTGATGGTCGTAGGACATTCTTTGCCCACGTTGA / AGACCATCAAATGGCAGGCT / UCAACGUGGGCAAAGAAUGUCCUACGUCCGAUACGGAUAAUCGC [T5:U5:RNA44* 3' RNA flap]
[1]
  binding result: binds more weakly

## GCGATTATCCGTATCGGACGTAGGAAGCCTGCCATTTGATGGTC / GACCATCAAATGGCAGGCTG / UCAACGUGGGCAAAGAAUGUCCUACGUCCGAUACGGAUAAUCGC [T2:U2:RNA44* 5' RNA flap]
[2]
  binding result: binds more weakly
[3]
  binding result: binds more weakly

## GCGATTATCCGTATCGGACGTAGGAAGCCTGCCATTTGATGGTC / GACCATCAAATGGCAGGCTGAACGAACAAAGCGAAAGCG / UCAACGUGGGCAAAGAAUGUCCUACGUCCGAUACGGAUAAUCGC [U3:T2:RNA44* 5' RNA flap with 20 nt 3' flap]
[4]
  binding signal: 3

For some of these results: The comparison behind a weaker result is the experiment's own reference, which may not be listed here. For some of these results: For at least one entry, the source does not settle the construct or the ends of the probe. For some of these results: Whether high values mean tight binding is not given here for every scale.
